In publication PMC1866352:
No constants are given. Whether binding was seen depends on the method and setting. Binding seen in cells or lysates may run through a third protein. Some entries that bind do so weakly or less than the wild type.

Chains of the proteins cited; added tags and fusions are not shown. Residues count along the entry.
UniProt P42859: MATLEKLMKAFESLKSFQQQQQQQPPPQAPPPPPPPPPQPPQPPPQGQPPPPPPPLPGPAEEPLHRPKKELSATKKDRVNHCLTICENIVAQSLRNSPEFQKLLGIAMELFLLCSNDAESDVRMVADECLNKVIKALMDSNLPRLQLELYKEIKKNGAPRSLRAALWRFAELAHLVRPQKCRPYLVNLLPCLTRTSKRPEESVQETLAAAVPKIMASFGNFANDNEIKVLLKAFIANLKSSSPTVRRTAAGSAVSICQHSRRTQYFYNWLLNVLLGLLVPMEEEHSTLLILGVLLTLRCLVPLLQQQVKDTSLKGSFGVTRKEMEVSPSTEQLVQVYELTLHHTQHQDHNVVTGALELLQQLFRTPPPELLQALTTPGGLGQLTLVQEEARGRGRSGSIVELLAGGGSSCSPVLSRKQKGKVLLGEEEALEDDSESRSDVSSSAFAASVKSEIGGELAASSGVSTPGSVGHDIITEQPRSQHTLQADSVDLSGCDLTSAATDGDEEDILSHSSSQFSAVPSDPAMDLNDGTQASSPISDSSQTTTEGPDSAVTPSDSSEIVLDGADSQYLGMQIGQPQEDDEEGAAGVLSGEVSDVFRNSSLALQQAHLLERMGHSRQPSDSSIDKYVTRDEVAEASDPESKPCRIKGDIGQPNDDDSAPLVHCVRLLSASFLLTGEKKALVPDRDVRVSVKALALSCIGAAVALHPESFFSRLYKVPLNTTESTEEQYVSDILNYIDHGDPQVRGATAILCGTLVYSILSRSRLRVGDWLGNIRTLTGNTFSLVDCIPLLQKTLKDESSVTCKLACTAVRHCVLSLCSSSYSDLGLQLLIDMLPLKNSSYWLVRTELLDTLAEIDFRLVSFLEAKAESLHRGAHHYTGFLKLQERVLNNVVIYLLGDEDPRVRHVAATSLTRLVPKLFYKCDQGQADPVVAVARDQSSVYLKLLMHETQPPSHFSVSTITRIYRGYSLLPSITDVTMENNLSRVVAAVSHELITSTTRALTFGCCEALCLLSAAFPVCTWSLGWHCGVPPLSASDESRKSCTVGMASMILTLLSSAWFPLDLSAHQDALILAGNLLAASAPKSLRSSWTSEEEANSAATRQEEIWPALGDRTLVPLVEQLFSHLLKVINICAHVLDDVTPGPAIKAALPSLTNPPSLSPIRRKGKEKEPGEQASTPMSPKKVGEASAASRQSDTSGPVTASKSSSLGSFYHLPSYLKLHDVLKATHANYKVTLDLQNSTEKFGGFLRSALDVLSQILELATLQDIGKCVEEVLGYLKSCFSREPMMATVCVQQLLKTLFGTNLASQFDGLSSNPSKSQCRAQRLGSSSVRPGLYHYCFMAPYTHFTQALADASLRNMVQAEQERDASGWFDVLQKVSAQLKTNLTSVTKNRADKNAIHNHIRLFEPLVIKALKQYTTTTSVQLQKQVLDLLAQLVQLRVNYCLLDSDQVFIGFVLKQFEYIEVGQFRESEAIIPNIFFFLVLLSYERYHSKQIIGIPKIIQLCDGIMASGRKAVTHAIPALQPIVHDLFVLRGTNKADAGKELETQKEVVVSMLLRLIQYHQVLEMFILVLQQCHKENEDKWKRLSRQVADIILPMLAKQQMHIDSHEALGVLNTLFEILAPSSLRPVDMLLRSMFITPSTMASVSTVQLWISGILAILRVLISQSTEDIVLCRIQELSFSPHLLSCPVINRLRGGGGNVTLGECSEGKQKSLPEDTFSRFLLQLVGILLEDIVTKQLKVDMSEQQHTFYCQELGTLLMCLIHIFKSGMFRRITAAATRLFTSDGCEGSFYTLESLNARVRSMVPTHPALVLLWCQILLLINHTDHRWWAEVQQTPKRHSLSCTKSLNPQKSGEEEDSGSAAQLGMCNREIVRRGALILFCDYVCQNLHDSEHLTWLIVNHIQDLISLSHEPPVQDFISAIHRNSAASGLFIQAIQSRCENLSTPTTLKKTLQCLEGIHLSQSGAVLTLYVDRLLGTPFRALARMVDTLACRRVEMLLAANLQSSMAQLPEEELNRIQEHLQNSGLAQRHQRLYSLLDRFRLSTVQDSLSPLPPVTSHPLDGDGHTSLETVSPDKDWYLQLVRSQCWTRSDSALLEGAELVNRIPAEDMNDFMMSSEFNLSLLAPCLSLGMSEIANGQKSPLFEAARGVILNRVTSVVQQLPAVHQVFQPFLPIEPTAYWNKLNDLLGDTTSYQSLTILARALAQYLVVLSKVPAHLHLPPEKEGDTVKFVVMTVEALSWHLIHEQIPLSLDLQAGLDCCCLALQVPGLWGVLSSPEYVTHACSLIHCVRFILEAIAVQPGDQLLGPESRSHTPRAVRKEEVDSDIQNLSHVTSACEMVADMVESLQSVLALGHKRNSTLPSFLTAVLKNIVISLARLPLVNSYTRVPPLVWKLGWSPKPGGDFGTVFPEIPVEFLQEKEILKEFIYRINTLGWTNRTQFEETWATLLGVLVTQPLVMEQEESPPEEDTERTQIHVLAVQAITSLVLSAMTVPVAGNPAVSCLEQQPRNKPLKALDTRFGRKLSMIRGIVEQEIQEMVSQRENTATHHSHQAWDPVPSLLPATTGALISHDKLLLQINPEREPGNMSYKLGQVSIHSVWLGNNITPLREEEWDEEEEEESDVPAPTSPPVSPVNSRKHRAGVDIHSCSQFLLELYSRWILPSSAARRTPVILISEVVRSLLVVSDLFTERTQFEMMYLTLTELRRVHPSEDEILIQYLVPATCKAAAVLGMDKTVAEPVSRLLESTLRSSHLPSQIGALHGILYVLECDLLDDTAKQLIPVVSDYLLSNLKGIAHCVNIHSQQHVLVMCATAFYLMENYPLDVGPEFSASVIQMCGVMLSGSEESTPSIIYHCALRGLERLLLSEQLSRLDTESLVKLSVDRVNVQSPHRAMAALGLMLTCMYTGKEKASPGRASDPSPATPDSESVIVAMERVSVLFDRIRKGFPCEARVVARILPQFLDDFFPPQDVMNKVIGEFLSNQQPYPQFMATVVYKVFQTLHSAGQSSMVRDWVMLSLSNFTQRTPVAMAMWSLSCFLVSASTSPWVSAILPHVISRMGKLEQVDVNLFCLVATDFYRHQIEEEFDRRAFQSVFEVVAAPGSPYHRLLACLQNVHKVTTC
UniProt O08532, residues 25-1103: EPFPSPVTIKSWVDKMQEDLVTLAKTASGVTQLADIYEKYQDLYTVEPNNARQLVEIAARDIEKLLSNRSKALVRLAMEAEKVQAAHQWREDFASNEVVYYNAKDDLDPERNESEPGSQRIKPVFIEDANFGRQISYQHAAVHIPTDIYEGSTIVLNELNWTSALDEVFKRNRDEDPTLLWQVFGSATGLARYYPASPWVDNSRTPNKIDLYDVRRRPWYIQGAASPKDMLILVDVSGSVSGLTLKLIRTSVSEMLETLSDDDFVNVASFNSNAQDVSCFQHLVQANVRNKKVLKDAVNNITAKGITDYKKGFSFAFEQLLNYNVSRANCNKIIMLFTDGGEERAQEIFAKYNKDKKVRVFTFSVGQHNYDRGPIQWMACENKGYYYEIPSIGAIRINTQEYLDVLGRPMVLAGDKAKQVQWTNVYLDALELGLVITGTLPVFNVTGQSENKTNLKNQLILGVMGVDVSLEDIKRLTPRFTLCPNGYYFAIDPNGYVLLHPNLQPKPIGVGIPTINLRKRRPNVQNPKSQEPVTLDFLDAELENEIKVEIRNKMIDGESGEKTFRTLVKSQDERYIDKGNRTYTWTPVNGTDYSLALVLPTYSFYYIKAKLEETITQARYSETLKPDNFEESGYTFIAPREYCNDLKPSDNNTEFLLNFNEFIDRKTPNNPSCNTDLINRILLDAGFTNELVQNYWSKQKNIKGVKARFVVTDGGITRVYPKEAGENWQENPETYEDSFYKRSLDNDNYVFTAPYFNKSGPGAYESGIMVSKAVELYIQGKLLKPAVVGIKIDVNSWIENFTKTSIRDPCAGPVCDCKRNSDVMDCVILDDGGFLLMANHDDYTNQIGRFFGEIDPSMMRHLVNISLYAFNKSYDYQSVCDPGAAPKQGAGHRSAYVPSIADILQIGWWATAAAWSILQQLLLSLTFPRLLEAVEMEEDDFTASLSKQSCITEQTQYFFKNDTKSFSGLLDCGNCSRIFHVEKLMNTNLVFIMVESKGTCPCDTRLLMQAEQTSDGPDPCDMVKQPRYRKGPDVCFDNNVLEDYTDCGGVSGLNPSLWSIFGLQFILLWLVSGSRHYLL
UniProt P60879: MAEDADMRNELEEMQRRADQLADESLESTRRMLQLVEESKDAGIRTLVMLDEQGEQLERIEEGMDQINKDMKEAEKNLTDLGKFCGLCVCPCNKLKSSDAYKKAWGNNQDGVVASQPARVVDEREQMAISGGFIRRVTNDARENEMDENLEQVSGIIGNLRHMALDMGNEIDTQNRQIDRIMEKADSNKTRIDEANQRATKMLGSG
UniProt Q9D4H8: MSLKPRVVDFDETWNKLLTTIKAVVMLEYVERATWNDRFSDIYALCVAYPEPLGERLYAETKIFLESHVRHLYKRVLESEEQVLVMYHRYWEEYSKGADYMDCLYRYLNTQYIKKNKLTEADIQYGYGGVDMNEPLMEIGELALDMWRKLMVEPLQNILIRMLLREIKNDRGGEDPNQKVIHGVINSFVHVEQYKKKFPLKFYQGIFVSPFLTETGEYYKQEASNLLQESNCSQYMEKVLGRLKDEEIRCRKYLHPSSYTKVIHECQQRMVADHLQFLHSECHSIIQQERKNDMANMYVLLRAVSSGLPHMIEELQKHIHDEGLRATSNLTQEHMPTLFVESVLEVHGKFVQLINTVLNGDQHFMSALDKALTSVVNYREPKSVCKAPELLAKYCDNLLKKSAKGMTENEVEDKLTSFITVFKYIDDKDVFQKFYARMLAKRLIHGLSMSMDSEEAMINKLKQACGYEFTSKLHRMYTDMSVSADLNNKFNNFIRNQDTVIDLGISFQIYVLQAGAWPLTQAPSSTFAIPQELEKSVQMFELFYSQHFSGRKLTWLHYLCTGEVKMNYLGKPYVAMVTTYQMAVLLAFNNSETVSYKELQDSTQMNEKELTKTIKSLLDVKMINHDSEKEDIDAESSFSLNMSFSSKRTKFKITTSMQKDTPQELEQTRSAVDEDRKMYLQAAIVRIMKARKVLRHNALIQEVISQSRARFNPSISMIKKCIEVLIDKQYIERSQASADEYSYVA

Target: Htt (wild-type, from wild-type mouse brain) (mouse (endogenous in mouse brain)) (UniProt P42859)
Assay: co-IP; whole-brain lysates (500 ug, T-PER with protease inhibitors) of wild-type or YAC128 mice; monoclonal Htt antibody (Chemicon 2166) overnight at 4 °C, protein G; washed 5x with TBS/0.05% Tween; Western blots probed for the partners

binding | Substance
binds | CACNA2D1 (mouse brain) (from UniProt O08532 25-1103)
binds | USP9X (mouse brain) (from UniProt P70398 1-2559)
binds | SNAP25 (mouse brain) (from UniProt P60879 1-206)
binds | CUL2 (mouse brain) (from UniProt Q9D4H8 1-745)
